Experimental data: PMC7919321

By UniProt entry, the sequences of proteins in these tests, tags left out. Where a name states a change or a piece, a line headed by the entry shows the natural chain unless it says otherwise.
UniProt P12830: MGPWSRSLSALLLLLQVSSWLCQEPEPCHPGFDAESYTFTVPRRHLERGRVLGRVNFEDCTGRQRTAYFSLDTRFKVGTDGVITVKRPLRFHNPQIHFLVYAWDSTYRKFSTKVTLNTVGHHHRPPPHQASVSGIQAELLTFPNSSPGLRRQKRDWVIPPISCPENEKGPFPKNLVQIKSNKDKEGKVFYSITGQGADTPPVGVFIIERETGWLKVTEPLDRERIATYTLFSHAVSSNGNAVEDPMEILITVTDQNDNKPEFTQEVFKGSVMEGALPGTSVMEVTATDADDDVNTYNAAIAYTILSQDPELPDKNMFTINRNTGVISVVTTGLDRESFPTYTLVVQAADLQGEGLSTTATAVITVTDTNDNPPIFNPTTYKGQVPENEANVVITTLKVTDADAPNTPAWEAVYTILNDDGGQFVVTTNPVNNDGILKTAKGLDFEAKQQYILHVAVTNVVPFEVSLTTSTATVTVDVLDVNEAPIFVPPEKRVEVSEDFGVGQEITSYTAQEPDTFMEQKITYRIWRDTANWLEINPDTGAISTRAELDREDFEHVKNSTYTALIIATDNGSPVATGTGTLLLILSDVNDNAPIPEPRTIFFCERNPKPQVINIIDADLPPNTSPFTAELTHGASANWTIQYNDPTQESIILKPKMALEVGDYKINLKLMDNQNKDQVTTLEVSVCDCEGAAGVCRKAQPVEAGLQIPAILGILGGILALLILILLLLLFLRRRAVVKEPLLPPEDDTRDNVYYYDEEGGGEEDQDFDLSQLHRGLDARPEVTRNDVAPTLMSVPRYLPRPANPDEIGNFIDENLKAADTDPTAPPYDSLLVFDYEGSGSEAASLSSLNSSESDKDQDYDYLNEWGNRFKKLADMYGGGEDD

Molecular target: T1, TMEM52B isoform 2, myc-tagged (transmembrane protein 52B) (human) (UniProt Q4KMG9)
T1 sequence: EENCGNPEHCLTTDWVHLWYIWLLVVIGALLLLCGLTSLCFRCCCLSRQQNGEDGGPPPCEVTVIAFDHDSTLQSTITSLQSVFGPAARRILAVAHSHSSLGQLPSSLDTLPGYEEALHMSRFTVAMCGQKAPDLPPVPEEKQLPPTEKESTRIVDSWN
Assay: co-IP; HEK293E cells co-transfected with myc-tagged TMEM52B and E-cadherin; lysis and washes in 10 mM Tris pH 7.4, 150 mM NaCl, 0.56 mM EGTA, 1% Triton X-100, 0.5% NP-40; immunoprecipitated with anti-myc at 4 °C for 16 h; blotted with anti-myc and anti-E-cadherin

binding: binds
Substance: E-cadherin (human, from an expression vector) (from UniProt P12830)

No constants are given. Whether binding was seen depends on the method and setting. Binding seen in cells or lysates may run through a third protein. Binding calls can cover weak binding; strength is not graded here. Sequences can lack the tags named with a protein.
